PMC9358705
Results are given in words; binding and its absence hold for the method and conditions named. Binding seen in cells or lysates may run through a third protein. Some binding calls cover weakened binding; strength is not graded here.

By UniProt entry, the sequences of proteins in these tests, tags left out.
UniProt P21333: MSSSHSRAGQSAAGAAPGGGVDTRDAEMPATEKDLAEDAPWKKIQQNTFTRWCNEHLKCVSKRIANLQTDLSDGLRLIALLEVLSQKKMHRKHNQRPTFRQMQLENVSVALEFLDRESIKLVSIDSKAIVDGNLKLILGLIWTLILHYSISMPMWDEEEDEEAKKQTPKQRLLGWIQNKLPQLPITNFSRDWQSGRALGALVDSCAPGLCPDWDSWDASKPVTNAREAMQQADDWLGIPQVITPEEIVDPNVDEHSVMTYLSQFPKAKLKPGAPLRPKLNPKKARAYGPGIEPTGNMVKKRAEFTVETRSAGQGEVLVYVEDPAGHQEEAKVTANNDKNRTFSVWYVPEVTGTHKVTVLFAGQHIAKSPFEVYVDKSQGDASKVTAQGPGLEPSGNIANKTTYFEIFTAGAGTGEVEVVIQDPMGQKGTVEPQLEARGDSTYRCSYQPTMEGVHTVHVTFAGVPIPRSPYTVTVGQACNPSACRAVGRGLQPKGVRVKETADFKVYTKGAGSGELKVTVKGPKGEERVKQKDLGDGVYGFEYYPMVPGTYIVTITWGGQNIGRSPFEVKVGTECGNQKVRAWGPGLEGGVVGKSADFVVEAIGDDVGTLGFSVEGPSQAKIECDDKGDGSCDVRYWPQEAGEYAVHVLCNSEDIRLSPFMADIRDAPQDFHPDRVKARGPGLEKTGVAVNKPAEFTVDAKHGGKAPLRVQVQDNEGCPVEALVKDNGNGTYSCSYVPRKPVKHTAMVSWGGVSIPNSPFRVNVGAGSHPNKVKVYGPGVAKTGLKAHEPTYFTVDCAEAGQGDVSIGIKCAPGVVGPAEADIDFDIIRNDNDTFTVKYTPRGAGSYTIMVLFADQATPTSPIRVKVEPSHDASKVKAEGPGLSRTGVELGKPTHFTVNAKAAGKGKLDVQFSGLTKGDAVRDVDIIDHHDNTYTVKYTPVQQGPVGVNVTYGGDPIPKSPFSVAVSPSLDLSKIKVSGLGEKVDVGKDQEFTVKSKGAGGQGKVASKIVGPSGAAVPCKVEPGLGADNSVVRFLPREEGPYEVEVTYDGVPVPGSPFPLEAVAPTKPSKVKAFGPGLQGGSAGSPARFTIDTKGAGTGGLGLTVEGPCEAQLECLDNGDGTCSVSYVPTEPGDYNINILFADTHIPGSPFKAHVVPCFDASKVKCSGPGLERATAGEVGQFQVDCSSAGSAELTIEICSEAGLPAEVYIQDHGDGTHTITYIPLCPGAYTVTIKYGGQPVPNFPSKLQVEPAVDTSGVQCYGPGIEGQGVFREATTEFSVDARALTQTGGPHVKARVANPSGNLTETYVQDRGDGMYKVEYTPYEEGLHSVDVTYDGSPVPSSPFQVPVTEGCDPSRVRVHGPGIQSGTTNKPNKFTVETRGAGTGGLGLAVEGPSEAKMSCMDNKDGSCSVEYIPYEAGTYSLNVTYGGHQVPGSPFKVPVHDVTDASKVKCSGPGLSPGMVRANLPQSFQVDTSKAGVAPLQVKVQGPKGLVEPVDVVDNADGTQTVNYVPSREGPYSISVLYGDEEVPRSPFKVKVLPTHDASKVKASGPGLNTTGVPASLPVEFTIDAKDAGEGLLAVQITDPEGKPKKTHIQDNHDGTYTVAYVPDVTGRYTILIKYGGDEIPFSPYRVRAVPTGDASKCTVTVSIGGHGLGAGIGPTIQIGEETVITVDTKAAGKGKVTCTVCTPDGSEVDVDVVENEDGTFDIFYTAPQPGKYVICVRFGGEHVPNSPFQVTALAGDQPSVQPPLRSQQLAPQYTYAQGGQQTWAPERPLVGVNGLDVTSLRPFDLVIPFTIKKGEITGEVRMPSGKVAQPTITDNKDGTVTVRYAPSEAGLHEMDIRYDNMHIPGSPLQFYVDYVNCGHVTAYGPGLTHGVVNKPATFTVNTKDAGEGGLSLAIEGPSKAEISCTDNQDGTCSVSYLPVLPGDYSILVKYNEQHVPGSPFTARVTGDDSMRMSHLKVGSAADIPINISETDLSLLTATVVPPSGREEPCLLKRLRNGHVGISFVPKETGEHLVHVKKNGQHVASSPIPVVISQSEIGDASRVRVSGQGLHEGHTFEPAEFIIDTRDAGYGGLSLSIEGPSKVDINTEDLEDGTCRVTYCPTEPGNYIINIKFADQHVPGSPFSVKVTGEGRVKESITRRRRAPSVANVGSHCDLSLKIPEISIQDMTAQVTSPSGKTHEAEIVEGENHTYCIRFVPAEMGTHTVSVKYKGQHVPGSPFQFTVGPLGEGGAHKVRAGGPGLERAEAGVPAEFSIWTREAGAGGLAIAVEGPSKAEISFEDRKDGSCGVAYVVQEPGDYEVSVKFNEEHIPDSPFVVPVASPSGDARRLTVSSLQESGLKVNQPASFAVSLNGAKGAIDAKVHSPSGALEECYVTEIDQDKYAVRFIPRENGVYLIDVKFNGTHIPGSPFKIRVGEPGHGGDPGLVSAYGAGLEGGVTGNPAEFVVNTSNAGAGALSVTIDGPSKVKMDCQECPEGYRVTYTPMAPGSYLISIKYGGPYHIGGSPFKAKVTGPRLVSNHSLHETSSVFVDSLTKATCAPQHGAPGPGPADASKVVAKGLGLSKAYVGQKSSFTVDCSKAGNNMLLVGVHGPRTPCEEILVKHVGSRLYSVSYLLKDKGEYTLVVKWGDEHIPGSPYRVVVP

Target: T1, Semaphorin 3d (human (endogenous in PLC/PRF/5; cDNA of the lentiviral construct in HCCLM3 not stated)) (UniProt O95025)
T1 sequence: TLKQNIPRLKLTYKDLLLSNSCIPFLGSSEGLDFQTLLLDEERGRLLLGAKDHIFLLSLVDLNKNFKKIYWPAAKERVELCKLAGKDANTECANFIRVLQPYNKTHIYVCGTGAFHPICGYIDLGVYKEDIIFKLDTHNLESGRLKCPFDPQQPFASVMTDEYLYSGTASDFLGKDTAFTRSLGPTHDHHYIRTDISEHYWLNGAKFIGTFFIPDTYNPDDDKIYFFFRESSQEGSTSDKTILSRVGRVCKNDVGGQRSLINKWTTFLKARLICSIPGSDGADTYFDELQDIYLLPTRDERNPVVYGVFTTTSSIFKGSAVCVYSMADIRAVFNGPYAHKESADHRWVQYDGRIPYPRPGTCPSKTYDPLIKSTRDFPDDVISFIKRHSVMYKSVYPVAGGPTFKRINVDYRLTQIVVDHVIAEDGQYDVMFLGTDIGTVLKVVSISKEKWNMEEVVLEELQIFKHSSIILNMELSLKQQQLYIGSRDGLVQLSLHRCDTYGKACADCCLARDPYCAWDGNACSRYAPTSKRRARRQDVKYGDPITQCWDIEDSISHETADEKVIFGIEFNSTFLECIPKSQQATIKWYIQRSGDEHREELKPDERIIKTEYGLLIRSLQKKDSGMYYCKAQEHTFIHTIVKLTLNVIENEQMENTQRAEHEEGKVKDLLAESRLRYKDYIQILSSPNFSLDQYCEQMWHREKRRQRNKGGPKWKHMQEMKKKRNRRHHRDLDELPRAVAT
Experiment: co-IP; co-IP of Sema3d and FLNA in HCC cells, detected by blot (Figure 5B); details in the Supplementary Materials and Methods

binding: binds
Substance: filamin-A (from UniProt P21333 1-2647)
